Where two headings read alike, the source gives them in different places. No constants are given. Whether binding was seen depends on the method and setting. Binding can be weak; no strength is given.

Test [1] deals with HLA-B*44:02 (human). In words: UV ligand-exchange ELISA (anti-b2m); exchange yield >10%=+, >20%=++, >50%=+++, >75%=++++.
The target of test [2] is HLA-B*44:02 (human). Described as above. The following applies: remark: other sources report otherwise.

With QQATPGPAY […], the binding result in test [1] and in test [2] was “binds” in each case.

The values are drawn from patent US20230346837A1.
